Results are given in words; binding and its absence hold for the method and conditions named. Some binding calls cover weakened binding; strength is not graded here.
Biological target: calcium/calmodulin (CaM)-dependent protein kinase II (CaMKII) (UniProt P11275)
Experiment: T-site mutants in kinase assays; block of NR2B binding

Chains of the proteins cited; added tags and fusions are not shown.
UniProt P11275: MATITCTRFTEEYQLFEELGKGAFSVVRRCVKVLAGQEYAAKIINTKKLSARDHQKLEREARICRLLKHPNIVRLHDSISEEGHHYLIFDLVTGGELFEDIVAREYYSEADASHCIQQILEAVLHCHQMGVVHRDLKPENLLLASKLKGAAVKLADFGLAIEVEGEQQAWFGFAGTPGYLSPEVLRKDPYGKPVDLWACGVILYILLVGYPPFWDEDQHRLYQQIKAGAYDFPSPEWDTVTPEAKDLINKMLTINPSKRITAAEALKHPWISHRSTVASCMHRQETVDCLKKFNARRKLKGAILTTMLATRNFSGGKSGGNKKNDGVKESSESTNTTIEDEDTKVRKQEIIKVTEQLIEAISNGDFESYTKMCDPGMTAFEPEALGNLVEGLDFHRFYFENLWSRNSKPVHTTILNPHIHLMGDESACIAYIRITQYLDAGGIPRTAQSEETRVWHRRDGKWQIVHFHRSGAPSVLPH

For KRPPKLGQIGRSKRVVIEDDR [CN21], which binding is on record?
Its binding is “binds”.
